# In PubChem BioAssay AID2685 (National Center for Advancing Translational Sciences (NCATS), 2010):
# The other results are listed elsewhere or left out. The main result of the screen is listed elsewhere. These columns were measured beside it and carry no call. Most of these compounds were active or inconclusive in the main read-out, so they are no random draw. The note in brackets gives the kind of curve behind each potency; many fits are weak.
# Experiment: qHTS Assay for Lipid Storage Modulators in Drosophila S3 Cells;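 for cell number change: cells counted by Cell Tracker Red CMTPX staining in the red channel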
# Details: BODIPY lipid droplet fluorescence, 18-24 h; for cell number change: measured here: cell count max response, cells fed with added oleic acid
# Summary of the method: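 Laser-scanning cytometry quantifies lipid droplet accumulation (500–530 nm total intensity; droplet/cell object ratio) in oleic acid-fed (400 uM added) Drosophila S3 cells treated with a concentration series. 20 uM Triacsin C defined 100% inhibition.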
# [1] = measured here: cell number channel AC50, cells fed with added oleic acid
# [2] = measured here: lipid fluorescence (Fed channel) AC50, cells fed with added oleic acid
Compound,cell number change,AC50 [1],AC50 [2]
Cc1ccc(-c2csc3nc(C)n(N)c(=O)c23)cc1,31.4%,"18.4 µM [rising, single point]",–
CCCCN(C(=O)COc1ccc(NC(C)=O)cc1)C1CCS(=O)(=O)C1 (centres undefined),28.6%,–,–
CC(=O)c1c(C)[nH]c(C(=O)COC(=O)CCSc2ccccc2)c1C,-35%,"1.84 µM [falling, partial curve]","6.51 µM [rising, full curve, poor fit]"
O=C(O)c1cc(NC(=O)c2ccccc2[N+](=O)[O-])ccc1O,2.81%,–,–
COc1cc(NC(=O)c2cnn3c(C(F)F)cc(C4CC4)nc23)c(OC)cc1Cl,10.6%,"3.66 µM [rising, single point]","2.59 µM [rising, partial curve, poor fit]"
COc1ccc(CNC(=O)C(=O)c2cn(CC(=O)N3CCCC3)c3ccccc23)cc1,-27.7%,"3.26 µM [falling, full curve, poor fit]",–
Cc1cc(Cl)ccc1OCCCC(=O)Nc1cccc(-n2cnnn2)c1,21.5%,–,–
O=C(CCc1ccccc1)Nc1ccc2c(c1)OCO2,-16.3%,–,"29.1 µM [rising, single point]"
Cc1ccc(N2C(=N)SCC2=O)cc1Cl,–,–,"3.66 µM [falling, single point]"
CC(NC(=O)COC(=O)CCN1C(=O)C2CC=CCC2C1=O)c1ccc(Br)cc1 (centres undefined),–,–,"0.00461 µM [falling, full curve, poor fit]"
COc1ccc(CCCc2nnc(SCC(=O)Nc3nc(C)cs3)n2C)cc1,-53.6%,"16.4 µM [falling, partial curve]","14.6 µM [falling, partial curve]"
CCOC(=O)N1CCN(S(=O)(=O)c2ccc(C(=O)N(CCCN(C)C)c3nc4cc(OC)ccc4s3)cc2)CC1,–,"3.66 µM [rising, partial curve]",–
CCc1cccc(NC(=O)c2ccc(NS(=O)(=O)c3c(C)noc3C)cc2)c1,-18.1%,–,"4.11 µM [falling, full curve, poor fit]"
CCCC(=O)NC(=S)N1CCN(c2ccc([N+](=O)[O-])cc2)CC1,-56.4%,"20.6 µM [falling, single point]","29.1 µM [falling, single point]"
COc1ccc(O[C@H]2C=C[C@@H](c3ccccc3)O[C@@H]2COC(=O)CC/C(C)=N/OC[C@@H](O)COCc2ccco2)cc1,0.503%,–,"10.3 µM [rising, partial curve]"
Cc1ccccc1N1CCN(Cc2c(C#N)c3ccccc3n2C)CC1,-14.5%,"6.51 µM [rising, single point]",–
O=C(CCl)Nc1ccc(Oc2cnc3ccccc3n2)cc1,-10.9%,–,–
Cc1cc(C)n2nc3nc(N4CCCC4)nc(-c4ccccc4)c3c2n1,-12.1%,–,"0.116 µM [rising, full curve, poor fit]"
Cc1cc(C)c(NC(=O)C2CCCCN2C)c(C)c1 (centres undefined),-13.9%,–,"3.66 µM [rising, full curve, poor fit]"
Clc1ccc(-c2nnc(-c3ccccc3)nc2N2CCSCC2)cc1,14.3%,–,"29.1 µM [rising, single point]"

Compound,cell number change,AC50 [1],AC50 [2]
Cc1c(C(=O)Nc2ccncc2)oc2ccccc12,-18%,–,"0.146 µM [rising, full curve, poor fit]"
Cc1ccc(SCCC(=O)N/N=C/c2cccnc2)cc1,-46.3%,"29.1 µM [falling, single point]","3.66 µM [rising, single point]"
CC(=O)c1ccc(N2CCN(C(=O)/C=C/c3cccs3)CC2)cc1,-4.19%,"0.231 µM [rising, full curve]","1.16 µM [rising, full curve]"
Cc1cc2oc(=O)cc(CN3CCCCC3C)c2cc1Cl (centres undefined),-1.39%,–,–
COc1ccccc1CN(Cc1nc2ccccc2c(=O)[nH]1)C(=O)Nc1cccc(C)c1,-2.89%,–,"6.51 µM [rising, single point]"
Cc1cccc(/C=C2\Sc3ccc(C(=O)N4CCOCC4)cc3N(C)C2=O)c1,-20.4%,"1.46 µM [falling, full curve, poor fit]","6.51 µM [falling, single point]"
CCOc1ccc(CNC(=O)C(C)n2ccc3cc(S(=O)(=O)N4CCCC4)ccc32)cc1 (centres undefined),-18.1%,–,"0.146 µM [rising, full curve, poor fit]"
CCC(=O)Nc1ccc2ccccc2c1,9.03%,–,"18.4 µM [rising, single point]"
COc1ccccc1-c1cc(C(=O)N/N=C\c2cnn(C)c2C)c2ccccc2n1,42.4%,"6.51 µM [rising, partial curve]",–
O=C(COC(=O)c1cc(S(=O)(=O)N2CCCC2)ccc1O)NCCc1ccccc1,3.02%,–,"0.517 µM [falling, single point]"
O=C(CCN1C(=O)C2C3CCC(C3)C2C1=O)Nc1cccc(Cl)c1 (centres undefined),1.94%,–,"0.92 µM [rising, partial curve, poor fit]"
Cc1noc(-c2ccc(C(F)(F)F)cc2)c1NC(=O)Nc1ccc(Cl)cc1,-53.1%,–,"20.6 µM [falling, partial curve, poor fit]"
CCCC(=O)Nc1nc2ccc(NC(=O)c3cccnc3)cc2s1,7.86%,–,"2.06 µM [rising, partial curve, poor fit]"
COC(=O)CSc1nnc(NC(=O)/C=C\c2ccc3c(c2)OCO3)s1,-83.3%,"29.1 µM [falling, single point]","0.517 µM [rising, full curve, poor fit]"
CCOC(=O)c1c(C(C)(C)C)oc2ccc(O)cc12,-54.3%,"29.1 µM [falling, single point]","29.1 µM [falling, single point]"
CCCCCCCCNC(=O)c1cccnc1SCC(=O)Nc1ccccc1OC,7.25%,–,"0.58 µM [rising, full curve, poor fit]"
COc1cc(CC(=O)Nc2cccc(C(F)(F)F)c2)cc(OC)c1OC,7.02%,"0.92 µM [rising, partial curve]",–
Cc1cnc(NC(=O)CC2OC(=O)c3ccccc32)s1 (centres undefined),6.5%,–,–
Cc1ccc(NC(=O)N(C2CCCCC2)C(C)c2cccnc2)cc1C (centres undefined),-1.41%,–,–
O=C(Cc1cccs1)N(Cc1cccs1)C1(C(=O)NC2CCCC2)CCCCC1,46%,"20.6 µM [rising, single point]",–

Compound,cell number change,AC50 [1],AC50 [2]
Cn1ccsc1=NC(=O)c1ccc(=O)[nH]c1,26%,–,"0.291 µM [rising, full curve, poor fit]"
COc1ccccc1CCNC(=O)C(=O)NCC1OCCN1S(=O)(=O)c1ccccc1 (centres undefined),17.3%,–,"0.291 µM [rising, partial curve, poor fit]"
CC1(C)C2CC=C(/C=N/NC(=O)c3ccccc3O)C1C2 (centres undefined),-39.5%,"0.0164 µM [falling, full curve]","6.51 µM [falling, full curve]"
CN(CC(=O)Nc1cccc(F)c1)C(=O)c1ccc2c(c1)NC(=O)CS2,-3.05%,"2.91 µM [rising, single point]","1.46 µM [rising, partial curve]"
COc1ccc(N2CCN(C(=O)CSc3nnc4c(C)cc5ccccc5n34)CC2)cc1,80.9%,"3.66 µM [rising, full curve]","0.116 µM [rising, full curve, poor fit]"
COc1ccc(-c2cc3c(nn2)-c2ccccc2C3=O)cc1,-22.8%,–,–
COc1ccc(NC(=O)CN2C(=O)c3ccccc3S2(=O)=O)cc1S(=O)(=O)N1CCOCC1,-3.74%,–,"6.51 µM [falling, single point]"
CC1(C)Cc2cccc(OCC(=O)Nc3nccs3)c2O1,-12.5%,–,–
COc1ccc(N=C2NN=C(c3ccc4c(c3)OCCO4)CS2)cc1,8.42%,–,"1.64 µM [rising, partial curve, poor fit]"
Cn1nccc1C(=O)N1CCN(c2ccccc2Cl)CC1,13.6%,–,–
COc1ccccc1NC(=O)CSC1=NC(=O)C(NC(C)=O)C(=O)N1 (centres undefined),-26.7%,"3.26 µM [falling, single point]","13 µM [falling, partial curve]"
COc1ccc(/C=N\NC(=O)c2sccc2C)cc1Cn1nc(C)cc1C,4.99%,–,–
CC1(C)CC(=O)c2c(Cc3ccccc3)n[nH]c2C1,19%,"1.84 µM [rising, partial curve, poor fit]",–
COc1ccccc1N(CC(O)Cn1ccnc1C)S(=O)(=O)c1ccc(C)cc1 (centres undefined),-15.9%,–,"2.59 µM [falling, full curve]"
COc1ccc(-c2nc(SCC(=O)Nc3nccs3)c(-c3ccc(Cl)cc3)[nH]2)cc1,-34.2%,"20.6 µM [falling, partial curve]","16.4 µM [falling, partial curve]"
Cc1ccc(C)c(NC(=S)c2ccc3ccccc3n2)c1,-87.4%,"23.1 µM [falling, single point]","29.1 µM [falling, single point]"
COc1ccc(CCC(=O)NCCc2cn3c(C)csc3n2)cc1,40.6%,"1.03 µM [rising, partial curve]","1.03 µM [rising, partial curve]"
CCOC(=O)C1=C(c2ccccc2)NC(=O)NC1c1ccc(O)c(Cl)c1 (centres undefined),-11.4%,–,–
CCCCn1c2nc3ccccc3nc2c2c(=O)n(CCC)cnc21,16.4%,–,"0.92 µM [rising, partial curve]"

# Record cards, from the list above:
# `CC1(C)CC(=O)c2c(Cc3ccccc3)n[nH]c2C1` as listed: cell number change: 19%; AC50 [1]: 1.84 µM [rising, partial curve, poor fit]
# `COc1ccccc1N(CC(O)Cn1ccnc1C)S(=O)(=O)c1ccc(C)cc1` (centres undefined) as listed: cell number change: -15.9%; AC50 [2]: 2.59 µM [falling, full curve]
